The values below come from paper PMC6560169.

Test [1] has as its target Tla3D2 (second DUF2875 domain of Tla3/PA0259), two-hybrid fusion (Pseudomonas aeruginosa). Put plainly: two-hybrid; bacterial adenylate cyclase two-hybrid (BACTH): fusions to T18 and T25 of the Bordetella adenylate cyclase in E. coli BTH101, spotted on X-gal/IPTG plates, 30°C.
Test [2] has as its target Tla3D1 (first DUF2875 domain of Tla3/PA0259), two-hybrid fusion (Pseudomonas aeruginosa). The test is described as above.

These are yes or no findings as the source states them, for the method shown. Tags and fused reporters may be left off the sequences shown.

B1: Tle3 fused downstream of the T18 or T25 domain (T18/T25-Tle3) (protein, UniProt Q9I6M9 1-716)
chain: MNDRVRSRTIVSAQSITLPKGGDVHLVPPPPKPCVTIVVHGVNDLAGCYERIERGLCQGLNERLDMPPTLPGGQANPGYLTPAGYSLPADDEGKAENPDVVYYRRKFASGAGGAAVRSVVVPFYWGFREEEQYINKTAAHGEWLDRNGNRLDKSGTKEGGQFVNATTNLPDMWGQGFNGKLFGFISLDWFGGTMTHPLFSAAGRKYMVLAAMRLAMLIKIIRKRYPDDTINVVGHSQGTLLTLLAHAFLKDDGVAPADGVIMLNSPYGLFEPLNEKLQGWSSQQTREARLATLKGILEFICGRRHPVPALSSVALRNCQGYGAIGGPGWVGGQGCQTTIDGERLSFDERDNRGSVYLYFTPQDQTVGLANVQGIGWRGIAEQVKGLPGRTGLPQGFHQRIFTVRKRNGEKEKIGGHAPPHVYPLLLAGEKTWEDTGLGGKDRFGRANFDQGDSVLLTAPRLPLPTEARFDFDGAVTAPGENSASGVYQVRDTLDPIDAAIGVSNGGWKEKDSGHAVAQQVDAALAYRYGRDARSVERALNEGKELAQQTHVFSARELGTGMVLVTRAETPYEARLRLQTAEGHLEPLSFHSAIPNNPEHNRRVLAYDLAIGAGDSVDDVVFYQYLCRVADWRLDWKASDKGIFSQGDASVDLPDEEVRALYRAEESKNSQLIDATVAYRKSGEFPVVVGNRLPSLVGTQTILDRYHEQAVRFGGTI
Consider B1, for which the binding entry in test [1] and in test [2] was “no binding” each time.
